# PubChem BioAssay AID743121 – NCATS | 2013
# Aim: 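Knock-downs that sensitise breast cancer cells to camptothecin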 (primary screen)
# Cell system: MDA-MB-231 cells, a human breast cancer line
# Knock-down reagent: single siRNA against human genes, 20 nM siRNA (0.8 pmol per well)
# Time to read-out: 120 h (drug added 48 h after transfection, read 72 h later)
# Treatment: camptothecin 20 nM (about EC30) for 72 h; vehicle 0.1% DMSO in parallel plates
# Measurement: 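CellTiter-Glo ATP signal, scaled to control siRNA as percent viability; sensitisation given as log2 of untreated divided by camptothecin-treated viability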
# Reading the numbers: log2 vehicle/camptothecin viability: higher = stronger sensitisation to camptothecin; viability with camptothecin and viability without drug: higher = more viable cells
# Call rule: 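Active genes have an RSA gene-level p-value below 0.001, computed from the ratios of their separate siRNAs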
# Shown is a random part of about 26,000 reagents. 167 of all reagents (0.63%) count as active. 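Calls are per gene from RSA p-values that are not deposited; an individual active-marked siRNA can sensitise only weakly.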 Entries without a mark were called inactive. The numbers tell different reagents against one gene apart. No sequences are given here.
Target gene,reagent,log2 vehicle/camptothecin viability,viability with camptothecin (% of control),viability without drug (% of control)
ULK4,1,-0.405,86.4,65.2
ULK4,2,-0.0607,97.4,93.4
ULK4,3,0.363,37.1,47.7
ULK4,4,-0.486,99.5,71
CSMD3,1,-0.203,105,91.5
CSMD3,2,-0.411,103,77.4
CSMD3,3,-0.18,105,92.2
EDNRB,1,-0.174,111,98.6
EDNRB,2,-0.318,54.7,43.8
EDNRB,3,-0.112,97.5,90.2
EDNRB,4,0.0449,107,110
PXDNL,1,-0.136,95.9,87.2
PXDNL,2,0.0261,78.2,79.7
PXDNL,3,-0.391,72.2,55
PXDNL,4,-0.554,96.2,65.5
IFNA5,1,0.0435,69.8,72
IFNA5,2,-0.771,49,28.7
IFNA5,3,-0.113,98.4,91
IFNA5,4,-0.00816,91.6,91.1
TACR3,1,-0.125,104,95.5
TACR3,2,-0.514,30.9,21.7
TACR3,3,0.0704,97.5,102
TACR3,4,1.17,15.2,34.2
KCNMB3,1,0.017,103,105
KCNMB3,2,-0.387,126,96.6
KCNMB3,3,0.0804,103,108
KCNMB3,4,-0.388,60.2,46
HEXB,1,-0.118,99.6,91.8
HEXB,2,-0.126,33.8,31
HEXB,3,-0.376,44.2,34.1
HEXB,4,-0.409,72.1,54.4
ADAM29,1,-0.00546,46.3,46.1
ADAM29,2,-0.206,100,86.9
ADAM29,3,0.131,57.5,63
ADAM29,4,-0.333,97.7,77.6
TBP,1,-0.262,94.4,78.7
TBP,2,-0.382,79.5,61
TBP,3,-0.09,26,24.4
SGMS2,1,0.151,85.6,95
SGMS2,2,-0.129,116,106
SGMS2,3,-0.329,69,55
PLD2,1,-0.169,113,101
PLD2,2,-0.00409,18.3,18.2
PLD2,3,-0.458,53.5,38.9
PLD2,4,-0.209,60.6,52.4
ADGRG3,1,-0.203,106,91.7
ADGRG3,2,0.0192,53.2,53.9
ADGRG3,3,0.17,50.4,56.7
ADGRG3,4,-0.689,87,54
CA2,1,-0.527,69.6,48.3
CA2,2,-0.132,108,98.4
CA2,3,-0.153,101,90.5
TP53,1,-0.302,86.6,70.2
TP53,2,0.213,54.6,63.3
TP53,3,0.0624,93.5,97.7
TP53,4,0.245,40.3,47.7
PROKR1,1,-0.411,96.2,72.4
PROKR1,2,-0.365,17.7,13.7
PROKR1,3,-0.127,98,89.8
PROKR1,4,-0.208,23.2,20.1
KCNE3,1,-0.246,106,89.2
KCNE3,2,0.588,42,63.1
KCNE3,3,-0.241,93.7,79.3
KCNE3,4,-0.413,109,82
SH2D3A,1,-0.298,43.5,35.4
SH2D3A,2,0.239,23.6,27.8
SH2D3A,3,0.0547,97.4,101
SH2D3A,4,-0.42,66.5,49.7
